Key:
MDA-MB-231 = assay: cells; conditions: Homo sapiens, MDA-MB-231, 48 h, read-out: In vitro cytotoxicity IC50
Experimental: (§1) The antitumor experiment was conducted on 59 human tumor cell lines derived from nine different human tissues, following the procedure of the Drug Evaluation Branch at the NCI, Bethesda, MD.[33]

leukemia HL-60 = assay: cells; conditions: Homo sapiens, HL-60, 48 h, read-out: In vitro cytotoxicity IC50
Experimental: as §1

in vitro = conditions: human
Experimental: A normal fibroblast-like fetal lung cell line (WI-38) was used to further investigate the therapeutic safety of the newly synthesized hybrids and evaluate their selective cytotoxicity toward normal and tumor cells.[33,77]
as §1

[1] = test system: breast adenocarcinoma MCF-7; assay: cells; conditions: Homo sapiens, MCF7, 48 h, read-out: In vitro cytotoxicity IC50

**Q.** With `CN[C@@H]1C[C@H]2O[C@@](C)([C@@H]1OC)n1c3ccccc3c3c4c(c5c6ccccc6n2c5c31)C(=O)NC4` [Staurosporine, reference compound] as the compound, how does the IC50 (MDA-MB-231) read?
**A.** The IC50 was 5.81 ± 0.26 µM.

**Q.** And the IC50 (leukemia HL-60)?
**A.** Its IC50 is 5.19 ± 0.23 µM.

**Q.** And the IC50 (in vitro)?
**A.** Its IC50 is 20.2 ± 0.9 µM.

**Q.** What about the IC50 [1] of the same compound?
**A.** The IC50 was 3.84 ± 0.17 µM.
